# Source: PubChem BioAssay (NCATS)
# Inconclusive means that the source gave no clear call. Such entries were picked first, then a sample of the others. For some assays here: Where the call is inconclusive, the potency comes from a doubtful curve fit. Calls of active or inactive are those of the source. Unless noted, calls come from the whole dose curve.
# How the values were obtained:
# [1] = Primary qHTS for Vero E6 cytotoxicity: counterscreen for inhibitors of SARS-S pseudo-typed particle cell entry (AID 1479150); details: activity change, negative = cytotoxicity: at 57.1 µM (top of the series) unless noted; note: potency is the fitted concentration of half-maximal effect
# [2] = Cytotoxicity counterscreen for inhibitors of SARS-CoV-2 cell entry (AID 1645845); details: activity change, negative = cytotoxicity: at 57.1 µM (top of the series) unless noted; note: nearly all actives have a fitted effect of over 50% in size
# Outline: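 Expi293F/hACE2 cells seeded overnight; cpd pin-transferred in DMSO, 1 h preincubation, + media, 48 h 37 C 5% CO2; ATPLite 1step luminescence; normalized to cells and no cells.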
# [3] = Primary qHTS for inhibitors of MERS-S pseudo-typed particle cell entry (AID 1479149); details: outcome: dose series up to 57.1 µM unless noted; note: nearly all actives have a fitted effect of over 60% in size; note: potency is the fitted concentration of half-maximal effect
# [4] = Primary qHTS to identify inhibitors of SARS-CoV-2 cell entry (AID 1645846); details: activity change, negative = inhibition: at 57.1 µM (top of the series); note: nearly all actives have a fitted effect of over 45% in size; note: potency is the fitted concentration of half-maximal effect
# Outline: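 Using luciferase-reporting pseudoviruses carrying Wuhan-Hu-1 spike, the screen tracks entry into stably ACE2-expressing cells over 48 hr. Activity is expressed relative to spike particles versus particles lacking any fusion protein.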
# [5] = Confirmatory qHTS for VERO E6 Cytotoxicity Assay: Counterscreen for SARS-CoV-2 CPE Assay (AID 1508605); note: potency is the fitted concentration of half-maximal effect; nearly all actives have a fitted effect of over 60% in size
# [6] = qHTS Assay for Identifying Gametocytocidal Compounds (AID 743244; active = well fitted curve in the direction sought with a large enough effect; inconclusive = small, poorly fitted or top-dose-only effect, or another doubt; inactive = no such curve, though single readings can be large; an effect the other way counts as inactive or inconclusive; note: potency is the fitted concentration of half-maximal effect); details: P. falciparum 3D7 stage III-V gametocytes, alamarBlue, 72 h; max response: hits give low values
# Outline: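 3D7 gametocytes, stages III–V, 20,000/well; cpd 72 h, 37 °C/5% CO2; + alamarBlue 24 h; fluor. Ex 525/Em 598.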
# [7] = S16 Schwann cell PMP22 intronic element firefly luciferase assay (AID 624032; active = well fitted curve in the direction sought with a large enough effect; inconclusive = small, poorly fitted or top-dose-only effect, or another doubt; inactive = no such curve, though single readings can be large; an effect the other way counts as inactive or inconclusive; note: potency is the fitted concentration of half-maximal effect; nearly all actives have a fitted effect of over 30% in size)
# Outline: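 Rat S16 Schwann cells stably carrying a PMP22 intronic element-driven Fluc reporter were seeded overnight, then exposed to compounds for 24 h at 37 °C. Luminescence was normalized to PTC124 (positive control) and DMSO (0% activity).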
# [8] = qHTS assay for small molecule agonists of the antioxidant response element (ARE) signaling pathway (AID 651741; active = well fitted activation curve with a large enough effect in the signal ratio; inconclusive = small, poorly fitted or top-dose-only effect, or effect the other way, or a change in a side signal; the % refers to the signal ratio; note: potency is the fitted concentration of half-maximal effect); details: HepG2 ARE-bla reporter, beta-lactamase FRET ratio, 16 h; activation: at 96 µM (top of the series)
# Outline: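 ARE-bla HepG2 cells (beta-lactamase reporter under ARE control) were plated at 2,000 cells/well, preincubated 5 h at 37 C/5% CO2, then treated with DMSO-dissolved compounds for 16 h at 37 C; LiveBLAzer B/G FRET substrate added, fluorescence read after 2 h at room temperature.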
# [9] = Primary qHTS for inhibitors of nuclear receptor binding SET domain protein 2 (NSD2) in an isogenic RCH-ACV NSD2 p.E1099K mutant (9B) (AID 1645876; active = well fitted curve in the direction sought with a large enough effect; inconclusive = small, poorly fitted or top-dose-only effect, or another doubt; inactive = no such curve, though single readings can be large; an effect the other way counts as inactive or inconclusive; note: nearly all actives have a fitted effect of over 70% in size)
# [10] = Cell Viability - LYMP2-025 (AID 976; active = well fitted curve in the direction sought with a large enough effect; inconclusive = small, poorly fitted or top-dose-only effect, or another doubt; inactive = no such curve, though single readings can be large; an effect the other way counts as inactive or inconclusive; note: potency is the fitted concentration of half-maximal effect); details: LYMP2-025 lymphoblastoid cell viability; activity change, negative = cytotoxicity: at 92.2 µM (top of the series)
# Outline: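 In qHTS format, LYMP2-025 lymphoblastoid cells in complete culture medium received compound for 24 hr; ATP-based CellTiter-Glo signal gave viability, with AC50 derived by Hill equation.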
# [11] = biological target: ATP-dependent 6-phosphofructokinase (Trypanosoma brucei brucei) (UniProt O15648); assay: qHTS Validation Assay to Find Inhibitors of T. brucei phosphofructokinase (AID 485368; active = well fitted curve in the direction sought with a large enough effect; inconclusive = small, poorly fitted or top-dose-only effect, or another doubt; inactive = no such curve, though single readings can be large; an effect the other way counts as inactive or inconclusive; note: potency is the fitted concentration of half-maximal effect)
# Outline: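 Activity was read as ADP production by luminescence (ADP-Glo) after 45 min at room temperature. The enzyme was 1.25nM PFK in 0.1M TEA pH 8.0 with 0.5 mM F6P, 0.1mM ATP and 5 mM MgCl2. Compounds were titrated up to 57 uM and % activity normalized to no-enzyme and full-enzyme controls.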
# [12] = biological target: Arylsulfatase A (Homo sapiens) (UniProt P15289); assay: qHTS screen for enhancers of Arylsulfatase A (ASA1): LOPAC Validation Assay (AID 720538; active = well fitted curve in the direction sought with a large enough effect; inconclusive = small, poorly fitted or top-dose-only effect, or another doubt; inactive = no such curve, though single readings can be large; an effect the other way counts as inactive or inconclusive)
# Outline: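 Cell-based enhancement test: residual ASA activity in SV40-transformed I179S patient fibroblasts is measured by pNCS turnover (0.5mM final, 14h, room temperature) following 48h compound incubation; higher fluorescence indicates activation.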
# [13] = biological target: Endonuclease 4 (Escherichia coli (strain K12)) (UniProt P0A6C1); assay: Counterscreen for APE1 Inhibitors: qHTS Validation Assay for Inhibitors of Endonuclease IV (AID 1708; active = well fitted curve in the direction sought with a large enough effect; inconclusive = small, poorly fitted or top-dose-only effect, or another doubt; inactive = no such curve, though single readings can be large; an effect the other way counts as inactive or inconclusive; note: potency is the fitted concentration of half-maximal effect)
# Outline: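 2 nM enzyme was preincubated with compounds for 15 min at room temperature in 50 mM Tris-HCl pH 7.5, 50 mM NaCl, 2 mM MgCl2, 1 mM DTT, 0.01% Tween-20. 50 nM THF-abasic TAMRA/BHQ-2 duplex substrate started the reaction.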
# [14] = biological target: RecQ-like DNA helicase BLM (Homo sapiens) (UniProt P54132); assay: qHTS Validation Assay for Inhibitors of Bloom's syndrome helicase (BLM) (AID 2364; active = well fitted curve in the direction sought with a large enough effect; inconclusive = small, poorly fitted or top-dose-only effect, or another doubt; inactive = no such curve, though single readings can be large; an effect the other way counts as inactive or inconclusive)
# Outline: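 BLM 50 nM in 25 mM Tris-HCl pH 8.0, 5 mM NaCl, 2 mM MgCl2, 1 mM DTT, 0.01% Tween-20, 2.5 ug/ml poly(dI-dC); 15 min cpd preinc, RT. Start: 200 nM forked DNA + 2 mM ATP (final). TAMRA read, 2 reads 2 h apart.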
# [15] = qHTS for Activators of Parkin Expression: LOPAC Validation Assay (FLuc Reporter) (AID 720573; active = well fitted curve in the direction sought with a large enough effect; inconclusive = small, poorly fitted or top-dose-only effect, or another doubt; inactive = no such curve, though single readings can be large; an effect the other way counts as inactive or inconclusive; note: potency is the fitted concentration of half-maximal effect)
# Outline: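 Readout is FLuc luminescence from neuronal reporter cells (Parkin promoter, FLuc plus NLuc) after 24 h compound exposure in dose response. Values normalized to neutral DMSO and positive-control compounds.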
# [16] = VSVG counterscreen qHTS to identify inhibitors of SARS-CoV-2 cell entry (AID 1645847); details: VSV-G pseudotyped particle entry, luciferase; activity change, negative = inhibition: at 57.2 µM (top of the series); note: potency is the fitted concentration of half-maximal effect; nearly all actives have a fitted effect of over 65% in size
# Outline: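 Entry of VSV-G pseudotyped particles into human ACE2-expressing HEK293 cells was measured by luciferase luminescence 48 h after infection, with compound added 1 h beforehand.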
smiles,measurement,setting,value
CN(CCCN1c2ccccc2CCc2ccccc21)CC(=O)c1ccc(Cl)cc1,Potency,[1],inactive
same,Potency,[2],inactive
CC[N+]1(CC)CCC(=C(c2ccccc2)c2ccccc2)C1C (configuration not stated),Potency,[3],inactive
same,Potency,[4],"inconclusive: 35.5 µM [inhibitor, single point]"
COC[C@H]1C[C@@H](c2ncc(-c3ccc4c(c3)COc3cc5c(ccc6[nH]c([C@@H]7CC[C@H](C)N7C(=O)[C@@H](NC(=O)OC)C(C)C)nc65)cc3-4)[nH]2)N(C(=O)[C@H](NC(=O)OC)c2ccccc2)C1,Potency,[3],"inconclusive: 7.08 µM [inhibitor, full curve]"
same,Potency,[4],"inconclusive: 14.1 µM [inhibitor, partial curve, poor fit]"
C=C1CC[C@H](O)CC1=C/C=C1\CCC[C@]2(C)[C@@H]([C@H](C)CCCC(C)(C)O)CC[C@@H]12,Potency,[3],"inconclusive: 39.8 µM [inhibitor, single point]"
same,Potency,[4],"inconclusive: 39.8 µM [inhibitor, single point]"
Cc1cc(Nc2ccccc2C(=O)O)ccc1Cl,Potency,[1],inactive
same,Potency,[4],"inconclusive: 39.8 µM [inhibitor, single point]"
CCCCCC/C=C\CCCCCCCC(=O)O,Potency,[1],"inconclusive: 6.31 µM [cytotoxic, single point]"
same,Potency,[4],"inconclusive: 10 µM [inhibitor, partial curve, poor fit]"
CC(C)c1ccc(NC(=O)C(c2ccccc2)N(C)C(=O)Cc2c[nH]c3ccccc23)cc1 (configuration not stated),Potency,[5],"inconclusive: 12.6 µM [cytotoxic, single point]"
Cc1ccc2c(Cl)cc(Cl)c(O)c2n1,Potency,[6],"inconclusive: 5.01 µM [inhibitor, full curve]"
same,Potency,[1],inactive
CCc1c(Cl)c(O)c(Cl)c(O)c1C(=O)O[C@H]1[C@H](O)[C@H](OC)[C@H](OC/C2=C\C=C\C[C@H](O)/C(C)=C\[C@H](CC)[C@@H](O[C@@H]3OC(C)(C)[C@@H](OC(=O)C(C)C)[C@H](O)[C@@H]3O)/C(C)=C/C(C)=C/C[C@@H]([C@@H](C)O)OC2=O)O[C@@H]1C,Potency,[3],"inconclusive: 39.8 µM [inhibitor, single point]"
same,Potency,[4],"inconclusive: 39.8 µM [inhibitor, single point]"
CC(C)Nc1cccnc1N1CCN(C(=O)c2cc3cc(NS(C)(=O)=O)ccc3[nH]2)CC1,Potency,[1],"inconclusive: 7.08 µM [cytotoxic, single point]"
CCCc1ccc(C(=O)O)cc1,Potency,[3],inactive
same,Potency,[4],"inconclusive: 35.5 µM [inhibitor, single point]"
O=C(NNCS(=O)(=O)O)c1ccncc1,Potency,[1],"inconclusive: 6.31 µM [cytotoxic, single point]"
CNCC(=O)OCc1cccnc1N(C)C(=O)OC(C)[n+]1cnn(C[C@](O)(c2cc(F)ccc2F)[C@@H](C)c2nc(-c3ccc(C#N)cc3)cs2)c1 (some centres not stated),Potency,[3],"inconclusive: 39.8 µM [inhibitor, single point]"
same,Potency,[4],"inconclusive: 20 µM [inhibitor, partial curve, poor fit]"
CCCCC(CC)COC(=O)c1ccccc1O (configuration not stated),Potency,[7],"inconclusive: 16.1 µM [inhibitor, single point]"
same,Potency,[8],"inconclusive: 77 µM [activator, single point]"
same,Potency,[1],inactive
same,Potency,[4],inactive
O=C(O)P(=O)(O)O,Potency,[1],inactive
same,Potency,[9],inactive
CC1(C)C2CCC1(C)C(O)C2 (configuration not stated),Potency,[3],inactive
same,Potency,[4],"inconclusive: 10 µM [inhibitor, partial curve]"
Cn1c(=O)c2[nH]cnc2n(C)c1=O,Potency,[10],"inconclusive: 39.8 µM [cytotoxic, partial curve, poor fit]"
same,Potency,[11],"inconclusive: 0.757 µM [activator, full curve, poor fit]"
same,Potency,[12],inactive
same,Potency,[3],inactive
O=C(O)CCCCCCCC(=O)O,Potency,[1],inactive
CC(C)NCC(O)COc1cccc2[nH]ccc12 (configuration not stated),Potency,[13],"inconclusive: 14.1 µM [inhibitor, partial curve, poor fit]"
same,Potency,[14],inactive
same,Potency,[11],"inconclusive: 0.151 µM [activator, full curve, poor fit]"
same,Potency,[15],"inconclusive: 16.4 µM [activator, partial curve]"
same,Potency,[1],inactive
same,Potency,[4],"inconclusive: 8.91 µM [inhibitor, single point]"
C=C(CC)C(=O)c1ccc(OCC(=O)O)c(Cl)c1Cl,Potency,[3],inactive
same,Potency,[4],active: 17.8 µM
same,Potency,[16],active: 1.92 µM
COC(=O)N[C@H](C(=O)N1CC2(CC2)C[C@H]1c1ncc(-c2ccc3c(c2)C(F)(F)c2cc(-c4ccc5nc([C@@H]6[C@H]7CC[C@H](C7)N6C(=O)[C@@H](NC(=O)OC)C(C)C)[nH]c5c4)ccc2-3)[nH]1)C(C)C,Potency,[3],"inconclusive: 20 µM [inhibitor, single point]"
same,Potency,[4],"inconclusive: 5.62 µM [inhibitor, partial curve]"

# As a working copy, some entries already given:
smiles,measurement,setting,value
C=C(CC)C(=O)c1ccc(OCC(=O)O)c(Cl)c1Cl,Potency,[16],active: 1.92 µM
COC(=O)N[C@H](C(=O)N1CC2(CC2)C[C@H]1c1ncc(-c2ccc3c(c2)C(F)(F)c2cc(-c4ccc5nc([C@@H]6[C@H]7CC[C@H](C7)N6C(=O)[C@@H](NC(=O)OC)C(C)C)[nH]c5c4)ccc2-3)[nH]1)C(C)C,Potency,[3],"inconclusive: 20 µM [inhibitor, single point]"
